Assay results as given in patent publication US12421216B2, “Voruciclib polymorphs and methods of making and using thereof” (MEI PHARMA, INC., priority 2019, dated 2025).
Entries after “also recorded” stand apart in the source; their conditions may differ. Structures can show the parent of a compound that is named as a salt. For at least one compound, name, drawing or mass did not settle the structure.

Legend:
[1] = Qualitative solubility determination in water at room temperature, with observation of gel formation; assay type: physicochemical; conditions: qualitative determination by adding aliquots of water, visual
Method: The aqueous solubility of Oxa2 (starting material) was assessed by the qualitative solubility determination approach. To 5.4 mg of Oxa2, water was added in steps of 50 μl until the material was dissolved (Exp. ID: SAS1). Visual inspection by the naked eye was used to decide whether complete dissolution occurred.
After the addition of 7.5 ml water, Oxa2 was not dissolved in water at room temperature. The suspension was heated to 50° C. upon which complete dissolution occurred, as indicated by a clear solution.
The aqueous solubility of Pho1 (Exp. ID: TCP23) was assessed by the qualitative solubility determination approach. To 5.6 mg of Pho1, water was added in steps of 50 μl until the material was dissolved (Exp. ID: SAS2). Visual inspection by the naked eye was used to decide whether complete dissolution occurred. After the addition of 700 μl water, Pho1 was not dissolved in water at room temperature whereas after a subsequent addition of 200 μl water (900 μl in total), the material completely dissolved.
The solubility of Mao1 in water was determined by adding small aliquots of water to the material until it was dissolved.

[2] = Thermodynamic solubility of voruciclib HCl by the shake-flask method (HPLC); assay type: physicochemical; conditions: voruciclib HCl in water or aqueous media

| Compound | Solubility in water at room temperature [1] | Behaviour in water / aqueous media (gel formation) ([2]; listed as API) | Behaviour in water / aqueous media (gel formation) ([2]; listed as HCl salt) |
| --- | --- | --- | --- |
| CN1CCC(c2c(O)cc(O)c3c(=O)cc(-c4ccc(C(F)(F)F)cc4Cl)oc23)C1CO.O=P(O)(O)O (stereo not drawn) [Pho1] | approximately 8 mg/ml | – | – |
| CN1CC[C@@H](c2c(O)cc(O)c3c(=O)cc(-c4ccc(C(F)(F)F)cc4Cl)oc23)[C@@H]1CO [voruciclib HCl] | – | A gel was formed in water | a tendency to form a gel in aqueous media; also recorded: a tendency of forming a gel in aqueous media |
